For at least one compound, name, drawing or mass did not settle the structure. Some results were stated once for a whole list of compounds, not compound by compound.
Experiments:
MBP-FALDR fusion protein = experiment: Inhibition of decanal reduction by MBP-FALDR in the presence of NADPH; type: biochemical, Marinobacter aquaeolei VT8; conditions: for Percent Activity: 100 mM MES pH 6.5, 200 μM NADPH, 250 μM decanal, 125 μg MBP-FALDR, activity remaining vs no inhibitor
Experimental: (§1) For Fatty Aldehyde Continuous Spectrophotometric Assay Development, all assays were performed in a sealed quartz cuvette with a 1 cm path length. The cuvette and solutions were first degassed with argon on a manifold to remove oxygen from the headspace and solutions. Substrates were initially disbursed into a buffer solution containing BSA at a concentration of 0.5 mg/mL by sonication for three ten second intervals using a microtip sonicator (Branson, Danbury, Conn.). The initial assay for pH optimization included a buffer of 100 mM MOPS, 100 mM MES, and 100 mM TAPS. For reduction assays, 75 μL of a 2 mg/mL NADPH stock was added to bring the initial concentration of NADPH in the cuvette to approximately 200 μM, and an approximate absorbance at 340 nm of 1.2 based on the reported extinction coefficient of 6220 M^−1 cm^−1 for NADPH. In all assays, the reaction was run for at least two minutes with the NADPH and substrate present, prior to the addition of any enzyme, to obtain a background oxidation rate of the NADPH.
Finally, the ability of decanol to inhibit reduction of decanal was also tested.
Referring again to Table 2, the inhibition assays were run in 100 mM MES buffer pH 6.5 with 200 μM NADPH, 250 μM decanal and 125 μg of MBP-FALDR fusion protein. All compounds were dissolved in buffer except dipyridyl, which was dissolved in dimethyl sulfoxide (DMSO).

[1] = biological target: Marinobacter aquaeolei VT8 fatty aldehyde reductase (SEQ ID NO: 2) as maltose binding protein-fatty aldehyde reductase fusion protein (MBP-FALDR), SEQ ID NO: 3 (Marinobacter nauticus, UniProt A1U2T0); experiment: Inhibition of decanal reduction by MBP-FALDR; type: biochemical; conditions: 1.0 mM; reduction of decanal with NADPH
Experimental: as §1, with “In all assays, the reaction was run for at least two minutes with the NADPH and substrate present, prior to the addition of any enzyme, to obtain a background oxidation rate of the NADPH.” left out
To probe the possible mechanism of the fatty aldehyde reducatase enzyme comprising the amino acid sequence of SEQ ID NO: 2, applicants again used the MBP-FALDR enzyme and some potential chemical inhibitors were tested for effects on the reduction of decanal by the MBP-FALDR enzyme in the presence of NADPH. […] At higher concentrations, this was difficult to assess fully, as the dithionite interferes with the absorbance at 340 nm where activity is measured. […]

O[C@H](CS)[C@H](O)CS (racemic) [Dithiothreitol]
decrease in activity (MBP-FALDR fusion protein; tested at 1.0 mM): less than 25%

O=C1O[C@H]([C@@H](O)CO)C(O)=C1O [Ascorbic Acid]
decrease in activity (MBP-FALDR fusion protein; tested at 1.0 mM): less than 25%

CCN(CC)C(=S)S [Diethyldithiocarbamate]
Percent Activity (MBP-FALDR fusion protein; inhibitor 0.25 mM): 61%
Percent Activity (MBP-FALDR fusion protein; inhibitor 1.0 mM): 50%
effect on decanal reduction in words (MBP-FALDR fusion protein; tested at 1.0 mM): moderate inhibition
effect on activity (in words) [1]: only a moderate inhibition of activity

OCCS [β-Mercaptoethanol]
decrease in activity (MBP-FALDR fusion protein; tested at 1.0 mM): less than 25%

Reference: patent US20100203614A1, “FATTY ALDEHYDE REDUCTASE” (Utah State University, priority 2009, published 2010)
